Where “and” joins values, the source holds several entries; their conditions need not be identical. Equal entries are not always repeated. Some of the results follow. Single wells; the ratio to wells without odorant was worked out here, and repeats agree poorly.

Data on 13 compounds can be found in the odorant receptor screen of Mainland et al. (2015).

Test systems include OR5H6 clone 1470; OR5I1 clone 1146; OR5J2 clone 1241; OR5K1 clone 1502; OR5K2 clone 1068; OR5K3 clone 1514; OR5K4 I206V clone 1729; OR5L1 clone 1204; OR5L1 clone 1383; OR5L1 clone 1720.
Common to all, as to assay: odorant receptor activation (CRE luciferase / Renilla) (fold of no-odor wells); higher = more activation
Common to all, as to settings: 100 µM

With `O=C1CCCCCCCCCCCCCCO1` [pentadecalactone], the odorant receptor activation in the test with OR5H6 clone 1470 was found to be 0.838; in the test on OR5I1 clone 1146, 0.874; in the test with OR5J2 clone 1241, 0.739; in the test on OR5K1 clone 1502, 0.779; in the test with OR5K2 clone 1068 it was 0.669; in the test on OR5K3 clone 1514, 0.768. Moreover, the odorant receptor activation worked out at 0.956 with OR5K4 I206V clone 1729, 0.778 in the test with OR5L1 clone 1204, 1.11 with OR5L1 clone 1383 and 0.757 in the test on OR5L1 clone 1720.
Take `C=CCSCC=C` [diallyl sulfide]: the odorant receptor activation with OR5H6 clone 1470 came out at 1.08; in the test on OR5I1 clone 1146, 1.05; with OR5J2 clone 1241, 0.964; with OR5K1 clone 1502, 1.49; in the test on OR5K2 clone 1068, 0.92; in the test on OR5K3 clone 1514, 1.24. Moreover, the odorant receptor activation with OR5K4 I206V clone 1729 turned out to be 0.539; with OR5L1 clone 1204, 0.987; in the test on OR5L1 clone 1383 it was 1.05; in the test on OR5L1 clone 1720, 0.529.
On to `c1cnccn1` [pyrazine], for which the odorant receptor activation in the test with OR5H6 clone 1470 was 0.869; in the test with OR5I1 clone 1146, 0.944; in the test with OR5J2 clone 1241, 0.772; with OR5K1 clone 1502, 0.69; in the test on OR5K2 clone 1068, 0.813; with OR5K3 clone 1514 it was 0.82. For the same compound, the odorant receptor activation in the test on OR5K4 I206V clone 1729 amounted to 0.995; with OR5L1 clone 1204 it was 0.878; with OR5L1 clone 1383 it was 1.16; in the test on OR5L1 clone 1720, 0.87.
On to `CC(C)CCC(=O)O` [4-methylvaleric acid], for which the odorant receptor activation in the test with OR5H6 clone 1470 came to 1.03; with OR5I1 clone 1146, 0.998; with OR5J2 clone 1241, 0.781; in the test on OR5K1 clone 1502 it was 1.1; in the test on OR5K2 clone 1068, 3.35; in the test with OR5K3 clone 1514 it was 0.741. The odorant receptor activation turned out to be 0.883 in the test on OR5K4 I206V clone 1729, 0.827 in the test on OR5L1 clone 1204, 0.772 in the test on OR5L1 clone 1383 and 1.14 in the test on OR5L1 clone 1720.
For the compound `CC12CCC(C1)C(C)(C)C2=O` (stereo not given) [fenchone], the odorant receptor activation in the test with OR5H6 clone 1470 is 0.801; in the test with OR5I1 clone 1146 it was 0.99; with OR5J2 clone 1241, 0.885; in the test with OR5K1 clone 1502, 1.22; in the test with OR5K2 clone 1068, 0.933; with OR5K3 clone 1514, 1.09. Moreover, the odorant receptor activation with OR5K4 I206V clone 1729 was found to be 0.866; in the test on OR5L1 clone 1204 it was 0.945; with OR5L1 clone 1383, 1.06; in the test with OR5L1 clone 1720, 0.729.
In the case of `C=C(C)C1CC=C(C)C(=O)C1` (stereo not given) [r-carvone], the odorant receptor activation with OR5H6 clone 1470 was determined as 1.02; with OR5I1 clone 1146 it was 1.07; with OR5J2 clone 1241 it was 0.879; in the test with OR5K1 clone 1502 it was 1.08; in the test with OR5K2 clone 1068 it was 0.768; with OR5K3 clone 1514, 1.01. Besides, the odorant receptor activation stood at 0.972 with OR5K4 I206V clone 1729, 1.21 with OR5L1 clone 1204, 1.38 in the test with OR5L1 clone 1383 and 0.772 in the test with OR5L1 clone 1720.
For the compound `CC=Cc1ccc(O)c(OC)c1` [isoeugenol], the odorant receptor activation in the test on OR5H6 clone 1470 is 0.922 and 2.73; in the test on OR5I1 clone 1146 it was 1.19; in the test with OR5J2 clone 1241, 4.41; with OR5K1 clone 1502, 1.23 and 1.39; with OR5K2 clone 1068, 0.643; in the test with OR5K3 clone 1514 it was 1.54 and 1.9. Moreover, the odorant receptor activation in the test on OR5K4 I206V clone 1729 was 6.83; in the test with OR5L1 clone 1204, 1.76; in the test on OR5L1 clone 1383 it was 1.24; in the test on OR5L1 clone 1720 it was 3.2.
Regarding `CCCCO` [1-butanol], the odorant receptor activation with OR5H6 clone 1470 is 1.1; in the test on OR5I1 clone 1146, 0.981; in the test on OR5J2 clone 1241, 0.685; in the test on OR5K1 clone 1502, 1.34; in the test with OR5K2 clone 1068 it was 5.81; in the test on OR5K3 clone 1514, 1.01. Further, the odorant receptor activation with OR5K4 I206V clone 1729 was found to be 1.01; with OR5L1 clone 1204, 0.808; in the test on OR5L1 clone 1383 it was 0.635; in the test with OR5L1 clone 1720, 1.12.
As to `CC(C)CC(=O)O` [isovaleric acid], the odorant receptor activation in the test with OR5H6 clone 1470 was found to be 0.7; in the test with OR5I1 clone 1146 it was 0.936; in the test on OR5J2 clone 1241, 1.06; in the test with OR5K1 clone 1502, 0.862; in the test with OR5K2 clone 1068, 1.1; in the test with OR5K3 clone 1514, 0.992. Moreover, the odorant receptor activation with OR5K4 I206V clone 1729 turned out to be 1.48; with OR5L1 clone 1204, 1.29; with OR5L1 clone 1383, 0.975; with OR5L1 clone 1720, 0.853.
In the case of `CC1=CCC(C(C)(C)O)CC1` (stereo not given) [terpineol], the odorant receptor activation in the test on OR5H6 clone 1470 was found to be 0.796; in the test with OR5I1 clone 1146, 1.1; in the test with OR5J2 clone 1241, 1.07; in the test on OR5K1 clone 1502, 0.86; in the test with OR5K2 clone 1068 it was 0.834; with OR5K3 clone 1514, 0.795. Moreover, the odorant receptor activation turned out to be 0.658 with OR5K4 I206V clone 1729, 1.14 in the test on OR5L1 clone 1204, 1.04 in the test with OR5L1 clone 1383 and 1.47 with OR5L1 clone 1720.
Consider `COC(=O)c1ccccc1O` [methyl salicylate], for which the odorant receptor activation was 0.758 in the test with OR5H6 clone 1470; 0.653 in the test on OR5I1 clone 1146; 0.885 in the test on OR5J2 clone 1241; 1.04 in the test with OR5K1 clone 1502; 0.998 in the test on OR5K2 clone 1068; 0.877 in the test with OR5K3 clone 1514. Besides, the odorant receptor activation in the test on OR5K4 I206V clone 1729 came to 0.837; with OR5L1 clone 1204 it was 1.03; in the test on OR5L1 clone 1383, 1.04; in the test with OR5L1 clone 1720, 0.81.
Regarding `CCCCCC(=O)O` [caproic acid], the odorant receptor activation in the test on OR5H6 clone 1470 came to 0.856; in the test with OR5I1 clone 1146, 0.91; in the test on OR5J2 clone 1241, 1.25; with OR5K1 clone 1502, 0.872; in the test on OR5K2 clone 1068, 0.977; in the test with OR5K3 clone 1514, 0.884. The odorant receptor activation with OR5K4 I206V clone 1729 came to 1.31; with OR5L1 clone 1204 it was 0.936; with OR5L1 clone 1383, 0.185; in the test on OR5L1 clone 1720 it was 0.821.
In the case of `CCCCCCCCC=O` [nonyl aldehyde], the odorant receptor activation in the test with OR5H6 clone 1470 worked out at 0.893; with OR5I1 clone 1146, 0.914; with OR5J2 clone 1241, 1.09; in the test on OR5K1 clone 1502, 1.12; with OR5K2 clone 1068, 0.914; in the test on OR5K3 clone 1514, 1.37. The odorant receptor activation in the test on OR5K4 I206V clone 1729 amounted to 1.26; in the test on OR5L1 clone 1204, 1.01; in the test on OR5L1 clone 1383 it was 1.06; in the test on OR5L1 clone 1720, 0.815.
